Data published in the supplement of paper PMC8728848.
The list shows a part of the results.

Assays:
Assay in all cases: glycan array binding signal (z-score within array); higher = stronger binding
Details in all cases: glycan notation: IUPAC condensed, linker removed
Glc(a1-6)Glc(a1-6)Glc = molecular target: Glc(a1-6)Glc(a1-6)Glc
In short: (§1)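 The binding signal is a Z-score computed within each array and averaged over linkers. Arrays of the same protein sequence at different concentrations or buffers were also averaged together. Data originate from 3228 arrays in the Consortium for Functional Glycomics database, kept only where the protein sequence was available.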

Glc(b1-4)Glc = molecular target: Glc(b1-4)Glc
In short: as §1

Glc(b1-6)Glc = molecular target: Glc(b1-6)Glc
In short: as §1

GlcA(b1-3)Gal = molecular target: GlcA(b1-3)Gal
In short: as §1

GlcA(b1-6)Gal = molecular target: GlcA(b1-6)Gal
In short: as §1

[1] = molecular target: GlcNAc(a1-3)Gal(b1-4)GlcNAc
In short: as §1

[2] = molecular target: GlcNAc(a1-6)Gal(b1-4)GlcNAc
In short: as §1

[3] = molecular target: GlcNAc(b1-2)Gal(b1-3)GlcNAc
In short: as §1

[4] = molecular target: GlcNAc(b1-2)Man(a1-3)[GlcNAc(b1-2)Man(a1-6)]Man(b1-4)GlcNAc(b1-4)GlcNAc
In short: as §1

GlcNAc(b1-3)Gal = molecular target: GlcNAc(b1-3)Gal
In short: as §1

[5] = molecular target: GlcNAc(b1-3)Gal(b1-3)GalNAc
In short: as §1

GlcNAc(b1-3)Gal(b1-4)Glc = molecular target: GlcNAc(b1-3)Gal(b1-4)Glc
In short: as §1

[6] = molecular target: GlcNAc(b1-3)Gal(b1-4)GlcNAc
In short: as §1

[7] = molecular target: GlcNAc(b1-3)Gal(b1-4)GlcNAc(b1-3)Gal(b1-4)GlcNAc
In short: as §1

GlcNAc(b1-3)GalNAc = molecular target: GlcNAc(b1-3)GalNAc
In short: as §1

[8] = molecular target: GlcNAc(b1-3)[GlcNAc(b1-4)][GlcNAc(b1-6)]GlcNAc
In short: as §1

[9] = molecular target: GlcNAc(b1-3)[GlcNAc(b1-6)]Gal(b1-4)GlcNAc
In short: as §1

[10] = molecular target: GlcNAc(b1-3)[GlcNAc(b1-6)]GlcNAc
In short: as §1

[11] = molecular target: GlcNAc(b1-4)Gal(b1-4)GlcNAc
In short: as §1

[12] = molecular target: GlcNAc(b1-4)GlcNAc(b1-4)GlcNAc
In short: as §1

[13] = molecular target: GlcNAc(b1-4)GlcNAc(b1-4)GlcNAc(b1-4)GlcNAc(b1-4)GlcNAc
In short: as §1

[14] = molecular target: GlcNAc(b1-4)GlcNAc(b1-4)GlcNAc(b1-4)GlcNAc(b1-4)GlcNAc(b1-4)GlcNAc
In short: as §1

[15] = molecular target: GlcNAc(b1-4)[GlcNAc(b1-6)]GalNAc
In short: as §1

[16] = molecular target: GlcNAc(b1-6)Gal(b1-4)GlcNAc
In short: as §1

GlcNAc(b1-6)GalNAc = molecular target: GlcNAc(b1-6)GalNAc
In short: as §1

Kdn(a2-3)Gal(b1-3)GlcNAc = molecular target: Kdn(a2-3)Gal(b1-3)GlcNAc
In short: as §1

Kdn(a2-3)Gal(b1-4)GlcNAc = molecular target: Kdn(a2-3)Gal(b1-4)GlcNAc
In short: as §1

[17] = molecular target: Man(a1-2)Man(a1-2)Man(a1-3)Man
In short: as §1

[18] = molecular target: Man(a1-2)Man(a1-2)Man(a1-3)[Man(a1-2)Man(a1-3)[Man(a1-2)Man(a1-6)]Man(a1-6)]Man(b1-4)GlcNAc(b1-4)GlcNAc
In short: as §1

[19] = molecular target: Man(a1-2)Man(a1-2)Man(a1-3)[Man(a1-2)Man(a1-6)[Man(a1-3)]Man(a1-6)]Man(b1-4)GlcNAc(b1-4)GlcNAc
In short: as §1

[20] = molecular target: Man(a1-2)Man(a1-2)Man(a1-6)[Man(a1-3)]Man
In short: as §1

Man(a1-2)Man(a1-3)Man = molecular target: Man(a1-2)Man(a1-3)Man
In short: as §1

[21] = molecular target: Man(a1-2)Man(a1-3)[Man(a1-2)Man(a1-6)]Man
In short: as §1

[22] = molecular target: Man(a1-2)Man(a1-3)[Man(a1-3)[Man(a1-6)]Man(a1-6)]Man(b1-4)GlcNAc(b1-4)GlcNAc
In short: as §1

[23] = molecular target: Man(a1-2)Man(a1-3)[Man(a1-6)]Man(a1-6)[Man(a1-2)Man(a1-3)]Man(b1-4)GlcNAc(b1-4)GlcNAc
In short: as §1

Man(a1-3)[Man(a1-6)]Man = molecular target: Man(a1-3)[Man(a1-6)]Man
In short: as §1

[24] = molecular target: Man(a1-3)[Man(a1-6)]Man(a1-6)[Man(a1-3)]Man(b1-4)GlcNAc(b1-4)GlcNAc
In short: as §1

[25] = molecular target: Man(a1-3)[Man(a1-6)]Man(b1-4)GlcNAc(b1-4)GlcNAc
In short: as §1

B1: Tim-4 (Mus musculus), Q6U7R4 (protein)
chain: MSKGLLLLWLVTELWWLYLTPAASEDTIIGFLGQPVTLPCHYLSWSQSRNSMCWGKGSCPNSKCNAELLRTDGTRIISRKSTKYTLLGKVQFGEVSLTISNTNRGDSGVYCCRIEVPGWFNDVKKNVRLELRRATTTKKPTTTTRPTTTPYVTTTTPELLPTTVMTTSVLPTTTPPQTLATTAFSTAVTTCPSTTPGSFSQETTKGSAFTTESETLPASNHSQRSMMTISTDIAVLRPTGSNPGILPSTSQLTTQKTTLTTSESLQKTTKSHQINSRQTILIIACCVGFVLMVLLFLAFLLRGKVTGANCLQRHKRPDNTEDSDSVLNDMSHGRDDEDGIFTL
- glycan array binding signal (z-score) (Glc(a1-6)Glc(a1-6)Glc): -0.167
- glycan array binding signal (z-score) (Glc(b1-4)Glc): -0.259
- glycan array binding signal (z-score) (Glc(b1-6)Glc): 0.159
- glycan array binding signal (z-score) (GlcA(b1-3)Gal): 0.947
- glycan array binding signal (z-score) (GlcA(b1-6)Gal): 0.986
- glycan array binding signal (z-score) [1]: -0.514
- glycan array binding signal (z-score) [2]: -0.527
- glycan array binding signal (z-score) [3]: -0.252
- glycan array binding signal (z-score) [4]: -0.164
- glycan array binding signal (z-score) (GlcNAc(b1-3)Gal): -0.255
- glycan array binding signal (z-score) [5]: -0.141
- glycan array binding signal (z-score) (GlcNAc(b1-3)Gal(b1-4)Glc): -0.648
- glycan array binding signal (z-score) [6]: 0.087
- glycan array binding signal (z-score) [7]: 0.823
- glycan array binding signal (z-score) (GlcNAc(b1-3)GalNAc): -0.087
- glycan array binding signal (z-score) [8]: 1.75
- glycan array binding signal (z-score) [9]: -0.744
- glycan array binding signal (z-score) [10]: -0.736
- glycan array binding signal (z-score) [11]: -0.845
- glycan array binding signal (z-score) [12]: 0.106
- glycan array binding signal (z-score) [13]: -0.305
- glycan array binding signal (z-score) [14]: -0.439
- glycan array binding signal (z-score) [15]: -0.554
- glycan array binding signal (z-score) [16]: 0.626
- glycan array binding signal (z-score) (GlcNAc(b1-6)GalNAc): -0.269
- glycan array binding signal (z-score) (Kdn(a2-3)Gal(b1-3)GlcNAc): -0.265
- glycan array binding signal (z-score) (Kdn(a2-3)Gal(b1-4)GlcNAc): 0.306
- glycan array binding signal (z-score) [17]: 0.264
- glycan array binding signal (z-score) [18]: 0.032
- glycan array binding signal (z-score) [19]: -0.382
- glycan array binding signal (z-score) [20]: 0.027
- glycan array binding signal (z-score) (Man(a1-2)Man(a1-3)Man): -0.066
- glycan array binding signal (z-score) [21]: -0.185
- glycan array binding signal (z-score) [22]: -0.346
- glycan array binding signal (z-score) [23]: -0.16
- glycan array binding signal (z-score) (Man(a1-3)[Man(a1-6)]Man): 0.911
- glycan array binding signal (z-score) [24]: -0.096
- glycan array binding signal (z-score) [25]: -0.296
